Source: PubChem BioAssay AID504834 (National Center for Advancing Translational Sciences (NCATS), 2011)
Out of some 320,000 compounds screened, about 22,000 (6.9%) were called active. The shares of active, inactive and inconclusive entries below differ from those in the screen. The call rests on the fitted dose curve; in most records, active means well fitted inhibition curve with a large enough effect; inconclusive means small, poorly fitted or top-dose-only effect, or another doubt; inactive means no such curve, though single readings can be large or run the other way. Where the call is inconclusive, the potency comes from a doubtful curve fit.

assay: Primary qHTS for delayed death inhibitors of the malarial parasite plastid, 96 hour incubation; conditions: P. falciparum luciferase reporter growth; series mostly up to 28.7 µM; activity change, negative = inhibition: at the top concentration
How it was run: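 Parasite growth measured via integrated firefly luciferase reporter in P. falciparum. Infected erythrocytes at 2% hematocrit, 0.05% parasitemia final were treated 96 hours at 37 C under 5% CO2, and luminescence was read.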
On the % scale 0 is the no-effect control and ±100 the full control effect; potency means the concentration at half of the fitted maximal effect.

Structure (SMILES)	activity change, negative = inhibition	Potency
Cc1ccc(/C=N/n2c(-c3cccc(Cl)c3)n[nH]c2=S)o1	inactive: 16.8%	–
COCCC1CCCCN1C(=O)c1cc(COc2ccc(-n3cncn3)cc2)on1 (configuration not stated)	–	inconclusive: 14.7 µM [inhibitor, partial curve, poor fit]
COC(=O)CN(C#N)c1nc(N(C)C)nc(N(C)C)n1	–	active: 4.15 µM
COc1ccccc1NC(=S)Nc1ccccc1F	inactive: 38.1%	–
COC(=O)c1ccc(C(=S)N2CCCCC2)cc1	–	inconclusive: 1.17 µM [inhibitor, single point]
Cc1nc(C(F)(F)F)nc(Nc2ccc(N=Nc3ccccc3)cc2)c1C#N	inactive: 19.8%	–
O=[N+]([O-])c1ccc(Cl)cc1CN1CCCCCC1	–	inconclusive: 11.7 µM [inhibitor, single point]
COc1cc2c(cc1OC)C(c1ccc(Br)cc1)N(C(=O)c1ccccc1C(=O)O)CC2 (configuration not stated)	–	inconclusive: 14.7 µM [inhibitor, partial curve, poor fit]
Cc1ccc(NC(=S)NNC(=O)c2ccccc2OC(F)F)cc1	–	inconclusive: 16.5 µM [inhibitor, single point]
COc1ccc(C(=O)Nc2ccccc2C(=O)NCc2cccnc2)cc1	–	inconclusive: 20.8 µM [inhibitor, partial curve, poor fit]
CCc1ccc(NC(=O)c2nc(S(=O)(=O)Cc3ccccc3)ncc2Cl)cc1	–	inconclusive: 9.28 µM [inhibitor, partial curve]
Cc1ccc(-c2nc3ccccc3c(=O)n2Cc2ccccc2)cc1	–	inconclusive: 2.62 µM [inhibitor, single point]
CCOc1ccccc1CNC(=O)C1CCCN(c2nnc(C)c3c(C)n(-c4ccccc4)nc23)C1 (configuration not stated)	inactive: 38.3%	–
CCNC(=O)c1sc2cc(C)ccc2c1Cl	–	active: 13.1 µM
COCCCN(C(=O)CSCC(=O)Nc1cccc(C)c1)c1c(N)n(Cc2ccccc2)c(=O)[nH]c1=O	–	inconclusive: 13.1 µM [inhibitor, single point]
CCN(c1ccc(NC(=O)COC(=O)/C=C/c2cccs2)cc1)C(C)C	inactive: -5.51%	–
NC1=NC(c2cn[nH]c2-c2cccc(F)c2)n2c(nc3ccccc32)N1 (configuration not stated)	–	inconclusive: 3.29 µM [inhibitor, full curve]
CC12CCC(C/C1=N\OC(=O)c1ccc(F)cc1)C2(C)C (configuration not stated)	inactive: -23.9%	–
Cc1csc(NC(=O)c2cccn2C)n1	inactive: 317%	–
CCc1ccccc1NC(=S)N(CCCN1CCN(C)CC1)Cc1cccs1	–	inconclusive: 11.7 µM [inhibitor, single point]
COc1ccc(C(=O)N(C)Cc2ccon2)cc1OC1CCN(C(C)C)CC1	–	inconclusive: 18.5 µM [inhibitor, single point]
S=C(NCCc1ccccc1)Nc1ccccn1	–	inconclusive: 6.57 µM [inhibitor, partial curve, poor fit]
CCCCCC(=O)Nc1cccc(C2=NOC3(C2)C[C@H](C(N)=O)N(C(=O)CCCCC)C3)c1 (some centres not stated)	–	inconclusive: 13.1 µM [inhibitor, single point]
CC(C)CC(NC(=O)c1ccccc1NC(=O)c1ccccc1)C(=O)O (configuration not stated)	–	inconclusive: 9.28 µM [inhibitor, single point]

Structure (SMILES)	activity change, negative = inhibition	Potency
C/C=C/c1ccc(OCCCCOc2ccccc2F)c(OC)c1	–	inconclusive: 18.5 µM [inhibitor, single point]
Cc1cc(C(c2ccc(C)o2)c2ccc(C)o2)c(O)c([N+](=O)[O-])c1	inactive: -11.8%	–
C=C(C)COc1ccc(-c2[nH]ncc2Oc2cccc(OC)c2)c(O)c1	–	active: 8.28 µM
O=C(c1cc2cc(Br)ccc2[nH]1)N1CCc2ccccc21	–	active: 1.47 µM
CCC(C(=O)NCc1ccco1)n1nc(C)n2c(cc3occc32)c1=O (configuration not stated)	inactive: 0.201%	–
O=Cc1cn(-c2ccccc2)nc1-c1ccc2c(c1)OCCO2	–	inconclusive: 2.33 µM [inhibitor, partial curve, poor fit]
CCNC(=O)CCn1nc(-c2ccc(Cl)cc2)c2ccccc2c1=O	–	inconclusive: 13.1 µM [inhibitor, single point]
CCC1CCCCN1C(=S)NC(=O)c1cccc([N+](=O)[O-])c1 (configuration not stated)	–	inconclusive: 18.5 µM [inhibitor, single point]
Cc1c(C(C)C)c(=O)n(-c2ccc(S(=O)(=O)NCc3ccccc3)cc2)n1C	–	inconclusive: 9.28 µM [inhibitor, single point]
Oc1c(CN2CCCC(C(F)(F)F)C2)cc(Cl)c2ccccc12 (configuration not stated)	–	inconclusive: 2.62 µM [inhibitor, single point]
CCn1c(P(C)(=O)O)nc2ccccc21	–	inconclusive: 10.4 µM [inhibitor, partial curve, poor fit]
[O-]C1=N/[N+](=C/c2ccccc2Cl)CC1	inactive: 14.5%	–
O=C(CN1C(=O)NC2(CCCC2)C1=O)OCC(=O)c1cccc(Cl)c1	inactive: 19.7%	–
COc1ccc(OC)c(CNc2ncc(-c3cccc([N+](=O)[O-])c3)n2C)c1	inactive: 190%	–
Cc1ccc(C(O)C(=O)c2ccco2)cc1 (configuration not stated)	inactive: 95.7%	–
NC(=O)CC(NC(=O)c1cccc(Br)c1)c1ccc(N2CCN(c3ccc(F)cc3)CC2)c([N+](=O)[O-])c1 (configuration not stated)	–	inconclusive: 0.131 µM [inhibitor, full curve, poor fit]
CC(=O)Nc1ccc(S(=O)(=O)NCCC(=O)NCCc2ccc(F)cc2)cc1	–	inconclusive: 7.38 µM [inhibitor, partial curve, poor fit]
O=C(NCc1ccco1)c1cc(-c2cccc(Cl)c2)on1	inactive: 37.7%	–
O=S(=O)(c1ccc(F)cc1)c1nc(-c2ccco2)oc1Nc1ccc(F)cc1	–	inconclusive: 18.5 µM [inhibitor, single point]
Cc1ccc(C=C2C(=O)c3ccccc3C2=O)o1	–	inconclusive: 18.5 µM [inhibitor, single point]
C=C(C)COc1ccc(-c2[nH]ncc2-c2ccccc2)c(O)c1	–	inconclusive: 4.15 µM [inhibitor, full curve]
CCNC(=O)CSc1ncnc2sccc12	–	inconclusive: 11.7 µM [inhibitor, partial curve, poor fit]
CCOc1ccc(OCCNCc2ccc(OC(C)C(=O)N(C)C)c(OCC)c2)cc1 (configuration not stated)	inactive: -8.93%	–
COc1ccc2nccc(/C=C/c3ccnc4ccc(OC)cc34)c2c1	–	active: 3.7 µM

Structure (SMILES)	activity change, negative = inhibition	Potency
COc1cccc(OCc2cc(C(=O)N(C)Cc3nc4ccccc4[nH]3)no2)c1	inactive: 36.6%	–
CCOC(=O)Cc1nn(Cc2nc(-c3ccc(C#N)cc3)cs2)c(=O)c2ccccc12	–	inconclusive: 18.5 µM [inhibitor, single point]
COc1ccc(CN(C)CC(=O)Nc2ccccc2C(F)(F)F)cc1	inactive: -22.7%	–
CCOC(=O)C1(CCc2ccccc2)CCN(C(=O)C2CCOCC2)CC1	–	inconclusive: 0.0928 µM [inhibitor, partial curve, poor fit]
O=C(NC12CC3CC(CC(C3)C1)C2)c1cncc(O)c1	–	inconclusive: 0.0465 µM [inhibitor, full curve, poor fit]
CCOCCCNS(=O)(=O)c1ccc(OC)c(Cl)c1Cl	–	inconclusive: 18.5 µM [inhibitor, single point]
COc1ccc(C(CNC(=O)C2COc3ccccc3O2)N2CCCC2)cc1 (configuration not stated)	–	inconclusive: 10.4 µM [inhibitor, single point]
COc1ccc(S(=O)(=O)N2CCC(C(=O)Nc3ccccc3N3CCCC3)CC2)cc1OC	–	active: 11.7 µM
CCCC(=O)c1c(NCCO)cc(C)oc1=O	–	inconclusive: 13.1 µM [inhibitor, partial curve, poor fit]
COc1ccccc1/C=C(\C)C(=O)c1c(C)cc(C)[nH]c1=O	inactive: 2.34%	–
OC(CN1CCOCC1)Cn1c2c(c3ccccc31)CCCC2 (configuration not stated)	inactive: -6.32%	–
CN(CCc1ccccc1)C1CCCN(S(=O)(=O)N(C)C)C1 (configuration not stated)	–	inconclusive: 13.1 µM [inhibitor, single point]
CCC(C)(C)NC(=O)C(c1ccc(F)cc1)N(Cc1ccco1)C(=O)CCC(=O)Nc1ccccn1 (configuration not stated)	–	inconclusive: 18.5 µM [inhibitor, single point]
N#CC1=C(N2CCCCC2)c2cc3c(n2C1=O)CCCC3	–	inconclusive: 2.62 µM [inhibitor, single point]
COc1cccc2cc(C(=O)N(C)C)c(=O)oc12	–	inconclusive: 13.1 µM [inhibitor, single point]
NS(=O)(=O)c1ccc(CCNC(=O)C(=O)NCC2OCCN2S(=O)(=O)c2cccs2)cc1 (configuration not stated)	–	inconclusive: 11.7 µM [inhibitor, single point]
OC(CN1CCN(c2ccccn2)CC1)Cn1c2ccccc2c2ccccc21 (configuration not stated)	–	active: 1.85 µM
Cc1ccc(S(=O)(=O)NC(CC(C)C)C(=O)Nc2ccncc2)cc1 (configuration not stated)	–	active: 5.86 µM
C=CCN1C(=NC(=O)COc2ccc(Cl)cc2)SC2CS(=O)(=O)CC21 (configuration not stated)	inactive: 0.427%	–
CC(C(=O)NC1C(=O)N2C(C(=O)O)=C(CSc3nnnn3C)CSC12)n1cc(Cl)cn1 (configuration not stated)	–	inconclusive: 0.262 µM [inhibitor, full curve, poor fit]
Cc1c(-c2ccccc2)n[nH]c1C(=O)NN	inactive: 79.3%	–
CC(=O)c1c(C)[nH]c(C(=O)Nc2cccc(C(F)(F)F)c2)c1C	–	active: 1.85 µM
CC(=O)N1CCN(c2ncnc3sc(-c4ccccc4)cc23)CC1	–	inconclusive: 18.5 µM [inhibitor, single point]
CCCCc1cc(=O)oc2cc(OCC(=O)NCC3CCC(C(=O)O)CC3)ccc12 (configuration not stated)	–	inconclusive: 16.5 µM [inhibitor, partial curve, poor fit]
